# Data as given in PubChem BioAssay AID504793 (Drosophila RNAi Screening Center, 2011).
# Purpose: 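Whole-genome screen for parts of the DNA damage checkpoint at G2/M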 (primary screen)
# Cells: Drosophila S2R+ cells
# Reagent: long dsRNA against Drosophila genes, about 0.25 µg dsRNA per well
# Timing: 4 days of dsRNA, then 4 hours of drug before read-out
# Treatment: doxorubicin 0.5 µM for 4 hours to cause double-strand breaks, in cells also given a low, harmless dose of dsRNA against nbs to sensitise the assay
# Measurement: 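Per-well count of mitotic cells stained for phospho-histone H3 after doxorubicin exposure, used as mitotic index; counts are raw and not normalised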
# Scale: mitotic cells: higher = more cells in mitosis, weaker G2 arrest
# Call rule: 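a call needs confirmation in secondary tests, with other dsRNAs and a check of mitotic timing without damage, not just a high primary count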
# Meaning of the calls: active = confirmed in follow-up tests; inactive = not confirmed
# The deposit covers about 23,000 reagents; this is an unselected part of those with a known target gene and a result. Of all reagents, 62 (0.27%) are marked active. 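Calls come from follow-up tests whose scores are not deposited, so confirmed genes may have low counts here; counts are not normalised per plate.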 The raw values are shown without normalisation. Reagents against one gene are numbered here.
"mitotic cells, replicate 1",call,gene knocked down,reagent no.
6,inactive,CG2129 (GeneID 31741),1
5,inactive,CG2129 (GeneID 31741),2
6,inactive,tHMG2 (GeneID 42651),1
18,inactive,SP1029 (GeneID 53473),1
5,inactive,SP1029 (GeneID 53473),2
7,inactive,Sr-CII (GeneID 44219),1
6,inactive,Sr-CII (GeneID 44219),2
1,inactive,rnh1 (GeneID 35746),1
7,inactive,Ccdc39 (GeneID 40595),1
12,inactive,CG1999 (GeneID 31671),1
9,inactive,CG1999 (GeneID 31671),2
9,inactive,CG7251 (GeneID 33791),1
8,inactive,CG7251 (GeneID 33791),2
5,inactive,Or92a (GeneID 42425),1
3,inactive,l(3)72Dp (GeneID 317887),1
4,inactive,NaCP60E (GeneID 37981),1
14,inactive,NaCP60E (GeneID 37981),2
5,inactive,NaCP60E (GeneID 37981),3
4,inactive,Rdh (GeneID 2769007),1
1,inactive,grnd (GeneID 35103),1
4,inactive,Grx3 (GeneID 34745),1
9,inactive,Or74a (GeneID 39929),1
11,inactive,Rab3 (GeneID 36127),1
3,inactive,Pop4 (GeneID 38889),1
11,inactive,Pop4 (GeneID 38889),2
4,inactive,Trs33 (GeneID 41866),1
8,inactive,PIG-H (GeneID 40944),1
1,inactive,Atg101 (GeneID 32871),1
7,inactive,CG31949 (GeneID 319042),1
19,active,Cdc45 (GeneID 31052),1
7,inactive,Cdc45 (GeneID 31052),2
93,inactive,Slimp (GeneID 318604),1
2,inactive,zye (GeneID 40255),1
14,inactive,ash1 (GeneID 40133),1
5,inactive,Sec23 (GeneID 40694),1
2,inactive,Mcm2 (GeneID 40973),1
8,inactive,Mcm2 (GeneID 40973),2
9,inactive,alt (GeneID 42127),1
6,inactive,alt (GeneID 42127),2
10,inactive,vg (GeneID 36421),1
7,inactive,vg (GeneID 36421),2
5,inactive,vg (GeneID 36421),3
3,inactive,CG1620 (GeneID 35678),1
12,inactive,CG1620 (GeneID 35678),2
4,inactive,CG17097 (GeneID 34461),1
8,inactive,CG17097 (GeneID 34461),2
4,inactive,CG1979 (GeneID 40837),1
4,inactive,CG1979 (GeneID 40837),2
9,inactive,heph (GeneID 48571),1
2,inactive,heph (GeneID 48571),2
10,inactive,heph (GeneID 48571),3
10,inactive,heph (GeneID 48571),4
6,inactive,Srp68 (GeneID 39028),1
5,inactive,Srp68 (GeneID 39028),2
5,inactive,CR10032 (GeneID 40877),1
5,inactive,CR10032 (GeneID 40877),2
6,inactive,Adgf-C (GeneID 41680),1
14,inactive,Adgf-C (GeneID 41680),2
10,inactive,Gr22d (retired record) (GeneID 3772682),1
7,inactive,Gr22d (retired record) (GeneID 3772682),2
9,inactive,CG14540 (GeneID 43145),1
5,inactive,CG14540 (GeneID 43145),2
8,inactive,CG15458 (GeneID 50124),1
10,inactive,obst-B (GeneID 34336),1
12,inactive,VAChT (GeneID 42795),1
5,inactive,VAChT (GeneID 42795),2
7,inactive,VAChT (GeneID 42795),3
4,inactive,CHKov1 (GeneID 43067),1
3,inactive,CHKov1 (GeneID 43067),2
7,inactive,CHKov1 (GeneID 43067),3
8,inactive,CHKov1 (GeneID 43067),4
6,inactive,CHKov1 (GeneID 43067),5
7,inactive,Tnpo-SR (GeneID 33465),1
10,inactive,CG7423 (GeneID 32894),1
1,inactive,CG31467 (GeneID 318751),1
9,inactive,CG31467 (GeneID 318751),2

Copied from the list.
Under “mitotic cells, replicate 1”, VAChT (GeneID 42795) #3 has 7
Result of CHKov1 (GeneID 43067) #4 under “mitotic cells, replicate 1”: 8
obst-B (GeneID 34336), call: inactive
Under “mitotic cells, replicate 1”, CG1999 (GeneID 31671) #1 is entered as 12
Value for CG31467 (GeneID 318751) #1 in “call”: inactive
Value of Trs33 (GeneID 41866) in “call”: inactive
